Results as given in article doi:10.1101/684258.
Where two headings read alike, the source gives them in different places. These are yes or no findings as the source states them, for the method shown. Binding seen in cells or lysates may run through a third protein. A yes stands for co-enrichment or nearness to the bait. Other partners may have been found. For some assays here: A no says only that the protein was not detected with the bait.

Legend:
Assay in all cases: affinity purification with mass spectrometry
[1] = biological target: TRAPP-interacting plant protein fused to YFP (35S:TRIPP-YFP in tripp-1) (Arabidopsis thaliana)
[2] = biological target: AtTRS33-YFP (35S-TRS33-YFP) (Arabidopsis thaliana)
[3] = biological target: TRAPP-interacting plant protein fused to YFP (35S:TRIPP-YFP in tripp-1) (Arabidopsis thaliana); remark: listed apart in the source

Molecule | binding [1] | binding [2] | binding [3]
TRS31, endogenous (from UniProt Q9FGU1) | binds | – | –
TRS23, endogenous (from UniProt Q9LZ97) | binds | – | –
BET5, endogenous (from UniProt Q9SYB8) | binds | – | –
TRAPPC11, endogenous (from UniProt F4JXM9) | no binding | – | –
TRAPPC13, endogenous (from UniProt O82263) | no binding | – | –
TCA17, endogenous (from UniProt Q9SKS7) | binds | – | –
TRS20, endogenous (from UniProt F4HTY0) | binds | – | –
AtTRS120, endogenous (protein, UniProt Q9FY61 1-1186) MEPDVSIETLSIIRIAVLPIGTIPPTLLRDYHSMLLRHHTIALSAISSFYTEHQKSPFTNQPWDSGSLRFKFVLGGSPPSPWEDFQSNRKMLAVIGLCHCPSSPDLDSVTEKFNVACKSYSSALVRRCFAFSPGDSQLEDGDKKGENLILFPPSDKQTQEFHLQTMMQDIAASLLMEFEKWVLQAESAGTILKTPLDSQASLNSEEVIKAKKRRLGRAQKTIGDYSLLAGSPVDANAHYSTALELARLTGDYFWYAGALEGSVCALLVDRMGQRDVALEDEVRYRYTNVILHYRKSFIQEIAQRVSPLSFELEATLKLARFLCRRELAKEVVELLTNAADGAKSLIDASDRLILYVEVARLFGALGYQRKAAFFCRQVAQLYLQQDNRLAAISAMQVLSMTTDAYRIQSRASMSKVSVNNETGRLPDAGKMHHHSIVSLFESHWSTLQMVVLREILLSAVRAGDPLAAWSAAARLLRWHYPLITPSGQNGLANSLANSADRLPSGTRCADPALPFVRLFSFPLHSSQVDIVKRNPAREDWWTGSAPSGPFIYTPFSKGDANESSKQELIWVVGEPVQVLVELANPCCFDLRIDSIYLSAHSSNFDAFPVSVDIPPNSAKVITLSGIPTAVGPVTIPGCTVHCFGVITEHVFRDVDNLLLGAAQGLVFSDPFRSCGSAKLRHVFVPNISVAPPLPLLVANVVGGDGAIILYEGEIREVCINFANAGTVPIVQAHVSLSGKNQDAVISIADEALQSALPLKPGAQVTLPVTLKAWHVGPTDSDNTMSSGRNAAGNTGRPKDGTSPSLLIHYAGPLSNNGDSQEKESIVPPGRRLVVPLQICVLQGLSFVKARLLSMEIPAHVSDNLRDEDIERESNADSLVKINPFRGSWGLRFLELELSNPTDVVFEISVFVQLENSAKEDDSSPVQDSPEYEYPKTRIDRDYSARVLIPLEHFKLPVLDGSFFTKDPPPGSPSSSRNPSFSEKNTKAEINTLIKNLISKIKVRWQSGRNSSGELDIKDAIQTALQTTVMDVLLPDPLTFGFRLVRNGLEKDPETKAESPFSKGSVLSHEVTPMEVLVRNNTSEAIKLNLSVTCRDVAGQNCTEGADATVLWAGALSGISMEVAPLQEARHCFSLFFLVPGEYTMVAAAVIEDANNVLRARAGTASPNEPIFCRGPPFHVCVAGGAL | – | binds | binds
AtTRS130, endogenous (protein, UniProt F4K0C4 1-1259) MANYLAQFQTIKNSCDRLVAAVEDVCDLWPTVKGLFEEHQPLKRAFLTNKTRNPVFVENLPVEFILTTDARLRSRFPQEQYLFWFREPYATIVLVTCEDLDEFKNILKPRLKLIVQNDEREWFIVFVSKAHPSNDQATKNVKKVYAKLEVDFSSKKRERCCKLDVHGPEGNFWEDLELKITECIRNTLDRRAQFYEDEIRKLSEQRFMPIWNFCNFFILKESLAFIFEMAHLHEDALREYDELELCYLETVNMPGKQRDFGGFDGEDDQAVLLKPGSKPLTQIVQDDSFREFEFRQYLFACQSRLLFKLNRPFEVASRGYSFVISFAKALTLHESVLPFCMREVWVITACLALIEATASHHHDGVVAPDIEKEFFRLQGDLYSLSRVKFMRLGYLIGYGTDIEKSPLNSACLSMLPWPKPAVWPSLPQDASSEVLEKEKTILQATSRTKHFGIQRKALPLEPSVLLRVANRRRASLSTGNIPEMFDGRPSFTEGSGLEASPRTPSSLKVQAPPMSRTNSSPGNFESPLDRPMRLAEIFVAAEHALRLTISDHDLLKTLSSIQDFENKYLNLTKGAAENYHRSWWKRHGVVLDGEIAAVCFKHGKYDLAANSYEKVCALYAGEGWQDLLAEVLPNLAQCQKILDDQAGYMSSCVRLLSLDKGLFSSKERQAFQSEVVTLAHSEMKNPVPLDVSSLITFSGNTGPPLQLCDGDPGNLSVTVWSGFPDDITLDSLSLTLVATNNTDEGGQALKSSAATVLNPGRNTITFALPPQKPGSYVLGVVTGQIGRLRFRSHSFSKGGPADSDDFMSYEKPTRPILKVSKPRALVDLAAAVSSALLINEAQWIGIIVRPIAYSLKGAILHIDTGPGLKIEDSYGIEMERYMDADCDTGASKAEVFVEDSPVSSKRDSEVLNLCDGKIVFSDWASNVSSILWVPVRALSEKLARGSSSVTPLKQDILEGMRTVALKLEFGVHHNQIFERTIAAHFTDPFDVTTRVANKCNDGTLVLQVMLHSLVKANLIVLDVWLDLQDGFIHGQNDGRPTSTFFPLVVSPGSRAAVVFSICLDKSMSSEGKDLQLPESILNIKYGIHGDRAAGAHRPVDADHSETDTEGRDLVFKSAIVLQRPVLDPCLTVGFLPLPSDGLRVGKLITMQWRVERLKELKESEAVEQQHDEVLYEVNANSENWMIAGRKRGHVSLSEEQGSRVVISILCVPLVAGYVRPPQLGLPNVEEANVSSNPSGPHLVCVLPPLLSSSYCLPVK | – | binds | binds
